Reference: patent publication US20160138036A1
These are yes or no findings as the source states them, for the method shown. In cells and extracts the contact can be indirect. Some entries that bind do so weakly or less than the wild type.

Key:
[1] = target: recombinant MBP-BdSOC1 protein (Brachypodium distachyon); test: in vitro pull-down: MBP-BdSOC1 on amylose resin, 35S-labeled in vitro translated polypeptide, autoradiography
[2] = target: recombinant maltose-binding protein-SOC1 (MBP-SOC1) fusion (Arabidopsis thaliana) (UniProt O64645); test: in vitro pull-down: MBP-SOC1 on amylose resin, 35S-labeled in vitro translated polypeptide, autoradiography

Binder | binding [1] | binding [2]
BdS-IK truncated BdSOC1 form (35S-Met label in the pull-down assay (in vitro translated)) KAHELSVLCDVEVALIVFSPSGRLYEFASASMQKTLERYKASTKDKTSSPTAQQDIEKIKADAEGLSQKLEALEAYRRKFLGEKLEDDCSFEELNSLEVKMEKSLRSIRRMKTQVFEDQLAKLRQKEMTLRKENEDLRGK | binds | –
BdS-K truncated BdSOC1 form (35S-Met label in the pull-down assay (in vitro translated)) TAQQDIEKIKADAEGLSQKLEALEAYRRKFLGEKLEDDCSFEELNSLEVKMEKSLRSIRRMKTQVFEDQLAKLRQKEMTLRKENEDLRGK | binds | –
S-K truncated SOC1 form (35S-Met label in the pull-down assay (in vitro translated)) VSEENMQHLKYEAANMMKKIEQLEASKRKLLGEGIGTCSIEELQQIEQQLEKSVKCIRARKTQVFKEQIEQLKQKEKALAAENEKLSEK | – | binds
